Data as given in paper PMC5923425, “Structural analysis of human ARS2 as a platform for co-transcriptional RNA sorting” (Nature Communications, 2018).
Changes are numbered by the printed parent chain. Results are given in words; binding and its absence hold for the method and conditions named. In cells and extracts the contact can be indirect. A yes stands for co-enrichment or nearness to the bait. Other partners may have been found. For some of these results: A no says only that the protein was not detected with the bait. For some of these results: Tags and fused reporters may be left off the sequences shown.

Amino acid sequences for entries named in this document (tags omitted).
UniProt Q09161: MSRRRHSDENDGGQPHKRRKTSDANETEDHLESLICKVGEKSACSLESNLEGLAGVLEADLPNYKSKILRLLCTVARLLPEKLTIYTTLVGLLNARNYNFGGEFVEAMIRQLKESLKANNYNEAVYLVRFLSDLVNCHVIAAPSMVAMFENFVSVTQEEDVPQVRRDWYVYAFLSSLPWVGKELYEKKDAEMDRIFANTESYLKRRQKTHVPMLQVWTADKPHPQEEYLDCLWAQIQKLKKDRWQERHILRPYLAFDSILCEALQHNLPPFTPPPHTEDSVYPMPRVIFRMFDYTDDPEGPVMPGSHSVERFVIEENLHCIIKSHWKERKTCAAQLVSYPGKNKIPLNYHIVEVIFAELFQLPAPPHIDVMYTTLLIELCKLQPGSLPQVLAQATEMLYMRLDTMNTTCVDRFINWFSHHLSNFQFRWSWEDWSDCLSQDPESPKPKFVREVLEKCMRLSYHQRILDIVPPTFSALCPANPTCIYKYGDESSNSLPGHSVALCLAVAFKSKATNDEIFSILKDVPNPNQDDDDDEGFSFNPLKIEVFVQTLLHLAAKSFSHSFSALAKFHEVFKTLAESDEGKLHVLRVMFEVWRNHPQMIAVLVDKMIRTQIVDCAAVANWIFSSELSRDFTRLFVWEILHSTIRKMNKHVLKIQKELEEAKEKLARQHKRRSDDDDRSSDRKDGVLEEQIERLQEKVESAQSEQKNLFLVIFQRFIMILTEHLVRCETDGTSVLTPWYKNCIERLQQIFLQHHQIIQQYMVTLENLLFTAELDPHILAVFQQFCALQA
UniProt Q9H814: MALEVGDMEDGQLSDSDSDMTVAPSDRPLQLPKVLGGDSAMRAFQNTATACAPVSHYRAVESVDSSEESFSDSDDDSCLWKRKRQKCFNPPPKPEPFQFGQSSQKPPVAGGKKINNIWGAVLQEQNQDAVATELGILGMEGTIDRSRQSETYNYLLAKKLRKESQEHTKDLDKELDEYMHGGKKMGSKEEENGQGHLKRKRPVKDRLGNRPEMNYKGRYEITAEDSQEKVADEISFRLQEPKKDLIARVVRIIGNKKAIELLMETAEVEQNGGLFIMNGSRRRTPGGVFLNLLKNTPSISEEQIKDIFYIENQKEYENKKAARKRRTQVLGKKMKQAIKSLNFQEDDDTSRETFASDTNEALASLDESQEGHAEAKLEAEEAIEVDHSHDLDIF

Tests used:
Experiment in all cases: affinity purification with mass spectrometry; EGFP-tagged ARS2 constructs expressed in HEK 293T/17, lysis in 20 mM HEPES pH 7.4, 120 mM NaCl, 0.1% Triton X-100 with RNase H, GFP-Trap beads, TMT labelling, LC–MS/MS; controls EGFP and pcDNA3.1
[1] = biological target: T1, EGFP–ARS2 wt (human) (UniProt Q9BXP5)
T1 sequence: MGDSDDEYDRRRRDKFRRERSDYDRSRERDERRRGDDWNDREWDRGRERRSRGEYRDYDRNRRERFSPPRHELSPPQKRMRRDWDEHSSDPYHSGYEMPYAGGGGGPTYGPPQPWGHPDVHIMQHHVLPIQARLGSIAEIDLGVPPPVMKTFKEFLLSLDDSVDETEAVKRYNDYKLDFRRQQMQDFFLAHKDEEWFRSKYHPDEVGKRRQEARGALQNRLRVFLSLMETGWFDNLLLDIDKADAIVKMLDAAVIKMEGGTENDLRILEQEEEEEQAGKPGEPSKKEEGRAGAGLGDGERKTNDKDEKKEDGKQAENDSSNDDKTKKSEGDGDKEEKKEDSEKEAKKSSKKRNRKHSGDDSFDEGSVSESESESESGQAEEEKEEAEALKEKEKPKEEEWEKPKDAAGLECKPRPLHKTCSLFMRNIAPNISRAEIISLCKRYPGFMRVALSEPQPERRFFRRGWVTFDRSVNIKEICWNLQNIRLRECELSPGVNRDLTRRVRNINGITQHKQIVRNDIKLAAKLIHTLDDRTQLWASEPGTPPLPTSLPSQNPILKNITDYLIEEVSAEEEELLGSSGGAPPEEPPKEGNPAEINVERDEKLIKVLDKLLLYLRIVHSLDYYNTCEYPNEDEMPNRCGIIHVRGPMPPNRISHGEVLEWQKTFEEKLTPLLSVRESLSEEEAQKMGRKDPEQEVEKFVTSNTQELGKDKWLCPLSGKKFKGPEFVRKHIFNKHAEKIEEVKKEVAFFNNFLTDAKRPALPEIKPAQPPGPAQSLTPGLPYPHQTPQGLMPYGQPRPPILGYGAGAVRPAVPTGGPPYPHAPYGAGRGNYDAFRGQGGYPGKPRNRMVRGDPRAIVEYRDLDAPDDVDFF

[2] = biological target: EGFP–ARS2^(R854A R859A F871A) (human) (UniProt Q9BXP5)
[3] = biological target: T2, EGFP–ARS2^(K719A K722A K734A) (human) (UniProt Q9BXP5)
T2 sequence: T1 sequence with K719A, K722A, K734A

[4] = biological target: T3, EGFP–ARS2^1–845 (human) (UniProt Q9BXP5)
T3 sequence: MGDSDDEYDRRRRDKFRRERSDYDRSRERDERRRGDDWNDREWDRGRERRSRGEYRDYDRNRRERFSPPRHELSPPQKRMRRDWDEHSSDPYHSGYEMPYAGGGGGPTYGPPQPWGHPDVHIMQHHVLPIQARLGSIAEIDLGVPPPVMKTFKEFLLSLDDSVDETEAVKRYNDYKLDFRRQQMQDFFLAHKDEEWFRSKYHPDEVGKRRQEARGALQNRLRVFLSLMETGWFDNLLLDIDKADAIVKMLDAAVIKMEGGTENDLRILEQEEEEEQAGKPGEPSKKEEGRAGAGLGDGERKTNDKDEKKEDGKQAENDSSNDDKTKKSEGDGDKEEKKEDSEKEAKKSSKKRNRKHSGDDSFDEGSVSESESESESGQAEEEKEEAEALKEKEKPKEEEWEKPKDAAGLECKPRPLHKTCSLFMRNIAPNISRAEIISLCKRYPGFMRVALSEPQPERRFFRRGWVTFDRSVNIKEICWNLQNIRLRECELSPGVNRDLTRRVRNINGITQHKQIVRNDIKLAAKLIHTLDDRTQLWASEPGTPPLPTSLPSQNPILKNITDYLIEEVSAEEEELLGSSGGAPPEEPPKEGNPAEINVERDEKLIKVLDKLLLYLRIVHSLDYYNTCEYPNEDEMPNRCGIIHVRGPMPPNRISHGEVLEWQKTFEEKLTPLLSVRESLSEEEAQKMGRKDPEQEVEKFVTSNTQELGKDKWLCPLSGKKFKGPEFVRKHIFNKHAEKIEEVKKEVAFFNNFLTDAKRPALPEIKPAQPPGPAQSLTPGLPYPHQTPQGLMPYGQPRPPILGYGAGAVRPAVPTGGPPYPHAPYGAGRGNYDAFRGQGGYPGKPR

[5] = biological target: EGFP–ARS2^Δ692–743GSG (human) (UniProt Q9BXP5)

Substance | binding [1] | binding [2] | binding [3] | binding [4] | binding [5]
CBP80 (NCBP1) (endogenous) (from UniProt Q09161 1-790) | binds | no binding | binds | no binding | binds
PHAX (endogenous) (from UniProt Q9H814 1-394) | binds | no binding | no binding | no binding | no binding
